Reference: publication PMC4763238, “Resveratrol induces autophagy by directly inhibiting mTOR through ATP competition” (Scientific Reports, 2016)

Key:
mTOR [1] = target: mTOR (Homo sapiens, UniProt P42345)
mTOR [2] = target: mTOR (Homo sapiens, UniProt P42345, D2195A)

With `CC(C)n1nc(-c2cc3cc(O)ccc3[nH]2)c2c(N)ncnc21` [PP242] the “in vitro kinase assay, positive control for mTOR inhibition” value (mTOR [1]) was “PP242, a kinase inhibitor of mTOR, was used as a positive control for mTOR inhibition” and the “in vitro kinase assay with D2195A mTOR” value (mTOR [2]) was “PP242 also inhibited DA mTOR, albeit the inhibitory potency was less than WT mTOR (Fig. 5E)”.
